Reference: the supplement of paper PMC12282887

Tested on: Escherichia coli BW25113
Test: growth (OD600 area under curve, 8 h) (OD600 x h); higher = more growth
Method: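 E. coli BW25113 reporter strains (wild type, ΔmarA, ΔsoxS, Δrob, each carrying one of 8 lux reporter plasmids) were grown in 40 µl LB in 384-well plates at 37°C, 800 rpm, with each compound at 4 two-fold concentrations, in biological duplicates. Growth is the baseline-corrected OD600 area under the curve over 8 h (0-8 h WT, 1-9 h deletion strains).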

CCN(CC)CCOC(=O)c1ccc(N)cc1 [Procaine]
growth
Settings	reporter plasmid: EVC	reporter plasmid: acrABp	reporter plasmid: marRABp	reporter plasmid: micFp	reporter plasmid: ompFp	reporter plasmid: robp	reporter plasmid: soxSp	reporter plasmid: tolCp
1329.2 µg/ml, genetic background: wild type	2.13	2.39	2.49	2.4	2.11	2.15	1.89	2.3
1329.2 µg/ml, genetic background: ΔmarA	2.39	3.05	2.4	2.45	2.3	2.7	1.63	2.13
1329.2 µg/ml, genetic background: Δrob	1.94	2.43	2.47	2.02	1.65	1.83	1.41	2.25
1329.2 µg/ml, genetic background: ΔsoxS	2.04	2.26	2.5	1.75	1.81	2.074	2.04	2.24
2658.5 µg/ml, genetic background: wild type	1.8	2.34	2.31	1.89	1.9	1.8	1.69	2.12
2658.5 µg/ml, genetic background: ΔmarA	2.04	2.59	2.24	1.77	2.08	2.58	1.33	1.81
2658.5 µg/ml, genetic background: Δrob	1.69	2.2	2.22	1.59	1.25	1.39	1.05	1.89
2658.5 µg/ml, genetic background: ΔsoxS	1.54	1.91	2.12	1.18	1.56	1.93	1.54	1.71
5317 µg/ml, genetic background: wild type	1.49	1.86	1.83	1.42	1.54	1.49	1.33	1.837
5317 µg/ml, genetic background: ΔmarA	1.38	1.6	1.63	1.66	1.584	1.72	0.88	1.23
5317 µg/ml, genetic background: Δrob	1.19	1.48	1.63	1.14	0.89	1.09	0.708	1.38
5317 µg/ml, genetic background: ΔsoxS	1.05	1.68	1.67	0.765	1.077	1.19	0.903	1.35
10634 µg/ml, genetic background: wild type	0.996	1.55	1.46	0.906	1.41	1.4	0.958	1.1
10634 µg/ml, genetic background: ΔmarA	0.745	1.47	1.35	0.598	1.11	1.3	0.638	0.507
10634 µg/ml, genetic background: Δrob	0.451	1.24	1.09	0.344	0.689	0.726	0.301	0.44
10634 µg/ml, genetic background: ΔsoxS	0.487	1.54	1.29	0.351	0.966	1.23	0.563	0.373

CC(=O)[C@H]1CC[C@H]2[C@@H]3CCC4=CC(=O)CC[C@]4(C)[C@H]3CC[C@]12C [Progesterone]
growth
Settings	reporter plasmid: EVC	reporter plasmid: acrABp	reporter plasmid: marRABp	reporter plasmid: micFp	reporter plasmid: ompFp	reporter plasmid: robp	reporter plasmid: soxSp	reporter plasmid: tolCp
19.7 µg/ml, genetic background: wild type	2.88	2.93	3.07	3.16	2.94	2.92	3.12	3.19
19.7 µg/ml, genetic background: ΔmarA	3.07	4.22	3.45	3.24	3.43	3.58	3.13	2.99
19.7 µg/ml, genetic background: Δrob	3.15	3	3.4	3	2.36	2.75	2.67	3.19
19.7 µg/ml, genetic background: ΔsoxS	3.37	3.61	3.25	2.79	2.74	3.14	3.08	3.3
39.3 µg/ml, genetic background: wild type	2.697	3.33	3.29	3.2	2.96	2.93	2.91	3
39.3 µg/ml, genetic background: ΔmarA	3.01	4.18	3.44	3.09	3.42	3.66	2.89	2.94
39.3 µg/ml, genetic background: Δrob	2.7	2.97	3.31	2.67	2.16	2.58	2.6033	2.9361
39.3 µg/ml, genetic background: ΔsoxS	3.14	3.33	3.19	2.63	2.87	3.08	2.96	3.11
78.6 µg/ml, genetic background: wild type	2.98	2.88	3.12	3.174	3.09	2.8654	2.9	3.02
78.6 µg/ml, genetic background: ΔmarA	3.07	4.09	3.569	3.36	3.63	3.92	2.81	2.93
78.6 µg/ml, genetic background: Δrob	2.94	3.21	3.49	3.22	2.5	2.83	2.71	3.06
78.6 µg/ml, genetic background: ΔsoxS	3.26	3.35	3.62	2.94	3.15	3.27	3.1	3.14
157.2 µg/ml, genetic background: wild type	2.97	2.83	2.98	3.09	3.07	2.89	2.55	2.87
157.2 µg/ml, genetic background: ΔmarA	3.05	3.72	3.29	3.27	3.57	3.85	2.73	2.88
157.2 µg/ml, genetic background: Δrob	2.66	2.57	3.34	2.94	2.67	2.65	2.74	2.86
157.2 µg/ml, genetic background: ΔsoxS	3.02	2.68	3.3	2.77	2.95	3.16	3.05	3.1

C=C[C@H]1CN2CC[C@H]1C[C@H]2[C@H](O)c1ccnc2ccc(OC)cc12 [Quinine]
growth
Settings	reporter plasmid: EVC	reporter plasmid: acrABp	reporter plasmid: marRABp	reporter plasmid: micFp	reporter plasmid: ompFp	reporter plasmid: robp	reporter plasmid: soxSp	reporter plasmid: tolCp
40.6 µg/ml, genetic background: wild type	3.16	3	3.15	3.08	3.04	3.3	3.01	3.03
40.6 µg/ml, genetic background: ΔmarA	3.06	4.33	3.686	3.36	3.39	3.66	2.88	2.95
40.6 µg/ml, genetic background: Δrob	3.03	2.99	3.4	3.08	2.77	2.99	2.951	3.071
40.6 µg/ml, genetic background: ΔsoxS	3.53	3.459	3.26	3.13	3.14	3.28	3.232	3.37
81.1 µg/ml, genetic background: wild type	2.86	3.17	3.27	3.08	3.14	3.26	2.95	3.21
81.1 µg/ml, genetic background: ΔmarA	2.85	4.24	3.58	3.05	3.2	3.35	2.9	2.89
81.1 µg/ml, genetic background: Δrob	2.86	2.99	3.45	3.08	2.6	2.78	2.79	3.14
81.1 µg/ml, genetic background: ΔsoxS	3.16	3.22	3.39	2.77	2.99	3.19	3.11	3.1
162.2 µg/ml, genetic background: wild type	3.02	3.25	3.24	3.08	3.23	3.23	3.08	3.22
162.2 µg/ml, genetic background: ΔmarA	3.02	4.35	4.01	3.16	3.62	3.78	2.88	2.96
162.2 µg/ml, genetic background: Δrob	2.98	3.015	3.42	3.08	2.52	2.77	2.881	3.09
162.2 µg/ml, genetic background: ΔsoxS	3.41	3.358	3.35	2.77	3.02	3.26	3.21	3.37
324.4 µg/ml, genetic background: wild type	2.71	2.61	2.82	2.85	2.71	2.76	2.78	3.051
324.4 µg/ml, genetic background: ΔmarA	2.95	3.64	2.888	2.92	2.83	3.05	2.5	2.64
324.4 µg/ml, genetic background: Δrob	2.75	2.31	2.98	2.84	2.18	2.33	2.69	2.96
324.4 µg/ml, genetic background: ΔsoxS	3.2	3.01	2.99	2.65	2.61	2.53	2.91	3.14

COc1cc(NS(=O)(=O)c2ccc(N)cc2)ncn1 [Sulfamonomethoxine]
growth
Settings	reporter plasmid: EVC	reporter plasmid: acrABp	reporter plasmid: marRABp	reporter plasmid: micFp	reporter plasmid: ompFp	reporter plasmid: robp	reporter plasmid: soxSp	reporter plasmid: tolCp
7 µg/ml, genetic background: wild type	2.91	3.18	2.9	3.17	2.69	2.69	2.99	3
7 µg/ml, genetic background: ΔmarA	3.19	3.86	3.22	3.45	3.06	3.29	3.03	2.98
7 µg/ml, genetic background: Δrob	3.23	3.07	2.95	3.03	2.3	2.59	2.89	3.07
7 µg/ml, genetic background: ΔsoxS	3.44	3.34	2.82	2.95	2.85	2.86	3.03	3.3
14 µg/ml, genetic background: wild type	2.86	3.26	2.86	3.01	2.7	2.67	2.8	2.89
14 µg/ml, genetic background: ΔmarA	3.11	3.84	3.22	3.29	3.01	3.27	2.89	2.94
14 µg/ml, genetic background: Δrob	3.042	2.932	3.192	3.04	2.22	2.59	2.81	3.02
14 µg/ml, genetic background: ΔsoxS	3.16	3.28	2.95	2.76	2.86	2.98	2.88	3.1
28 µg/ml, genetic background: wild type	3.12	3.03	2.98	3.18	2.873	3.16	3.24	3.21
28 µg/ml, genetic background: ΔmarA	3.37	4.05	3.32	3.6	3.42	3.47	3.29	3.03
28 µg/ml, genetic background: Δrob	3.42	2.97	2.92	3.3	2.51	2.789	3.1262	3.304
28 µg/ml, genetic background: ΔsoxS	3.47	3.43	3.19	3.17	3.0713	3.22	3.13	3.45
56.1 µg/ml, genetic background: wild type	2.88	2.86	2.8	2.76	2.553	2.91	2.92	2.908
56.1 µg/ml, genetic background: ΔmarA	3.1	3.86	3.28	3.31	3.1	3.56	3.04	2.8
56.1 µg/ml, genetic background: Δrob	3.11	2.26	2.72	2.85	2.04	2.38	2.81	3.1
56.1 µg/ml, genetic background: ΔsoxS	3.27	2.99	2.72	2.89	2.59	2.81	2.97	3.34

C[C@]12CC[C@H]3[C@@H](CCC4=CC(=O)CC[C@@]43C)[C@@H]1CC[C@@H]2O [Testosterone]
growth
Settings	reporter plasmid: EVC	reporter plasmid: acrABp	reporter plasmid: marRABp	reporter plasmid: micFp	reporter plasmid: ompFp	reporter plasmid: robp	reporter plasmid: soxSp	reporter plasmid: tolCp
18 µg/ml, genetic background: wild type	2.78	3.41	3.21	2.92	3	3.018	2.76	2.67
18 µg/ml, genetic background: ΔmarA	3.03	4.27	3.47	3.23	3.35	3.53	2.627	2.87
18 µg/ml, genetic background: Δrob	2.74	3.78	3.54	2.84	2.46	3.04	2.59	2.79
18 µg/ml, genetic background: ΔsoxS	2.977	3.77	3.35	2.635	2.78	3.33	3.05	2.9
36.1 µg/ml, genetic background: wild type	2.85	3.24	3.3	2.96	2.73	2.83	2.79	2.81
36.1 µg/ml, genetic background: ΔmarA	2.88	3.99	3.3	3.16	3.29	3.57	2.72	2.78
36.1 µg/ml, genetic background: Δrob	2.79	3.65	3.21	2.91	2.52	2.84	2.65	2.78
36.1 µg/ml, genetic background: ΔsoxS	3.01	3.58	3.35	2.75	2.94	3.17	3.03	3.18
72.1 µg/ml, genetic background: wild type	2.92	3.19	3.538	2.84	3.12	2.97	2.74	2.87
72.1 µg/ml, genetic background: ΔmarA	2.98	4.02	3.28	3.14	3.3	3.69	2.75	2.88
72.1 µg/ml, genetic background: Δrob	2.67	3.48	3.14	2.64	2.48	3.05	2.56	2.781
72.1 µg/ml, genetic background: ΔsoxS	3.1	3.6	3.56	2.77	3.03	3.38	2.99	3.28
144.2 µg/ml, genetic background: wild type	3.01	3.33	3.41	2.787	3.23	2.85	2.71	2.916
144.2 µg/ml, genetic background: ΔmarA	2.95	3.56	3.25	3.21	3.33	3.55	2.67	2.78
144.2 µg/ml, genetic background: Δrob	2.77	3.235	3.09	2.71	2.32	2.78	2.72	2.7
144.2 µg/ml, genetic background: ΔsoxS	3.427	3.78	3.43	2.66	3.031	3.29	3.14	3.14

Values are raw readings; no control value is given beside them.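 Maximum concentrations were near the MIC for antimicrobials, 500 µM for most other compounds, and as high as 1 mM for known inducer-like compounds. Deletion strains began with a tenfold smaller inoculum, and wells with growth under 10% of the overall median counted as non-growing.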
